From paper PMC7901196
No constants are given. Whether binding was seen depends on the method and setting. Binding seen in cells or lysates may run through a third protein. These calls come from enrichment with a bait or labelling near it, and not all partners need be listed.

Chains of the proteins cited; added tags and fusions are not shown.
UniProt O97758: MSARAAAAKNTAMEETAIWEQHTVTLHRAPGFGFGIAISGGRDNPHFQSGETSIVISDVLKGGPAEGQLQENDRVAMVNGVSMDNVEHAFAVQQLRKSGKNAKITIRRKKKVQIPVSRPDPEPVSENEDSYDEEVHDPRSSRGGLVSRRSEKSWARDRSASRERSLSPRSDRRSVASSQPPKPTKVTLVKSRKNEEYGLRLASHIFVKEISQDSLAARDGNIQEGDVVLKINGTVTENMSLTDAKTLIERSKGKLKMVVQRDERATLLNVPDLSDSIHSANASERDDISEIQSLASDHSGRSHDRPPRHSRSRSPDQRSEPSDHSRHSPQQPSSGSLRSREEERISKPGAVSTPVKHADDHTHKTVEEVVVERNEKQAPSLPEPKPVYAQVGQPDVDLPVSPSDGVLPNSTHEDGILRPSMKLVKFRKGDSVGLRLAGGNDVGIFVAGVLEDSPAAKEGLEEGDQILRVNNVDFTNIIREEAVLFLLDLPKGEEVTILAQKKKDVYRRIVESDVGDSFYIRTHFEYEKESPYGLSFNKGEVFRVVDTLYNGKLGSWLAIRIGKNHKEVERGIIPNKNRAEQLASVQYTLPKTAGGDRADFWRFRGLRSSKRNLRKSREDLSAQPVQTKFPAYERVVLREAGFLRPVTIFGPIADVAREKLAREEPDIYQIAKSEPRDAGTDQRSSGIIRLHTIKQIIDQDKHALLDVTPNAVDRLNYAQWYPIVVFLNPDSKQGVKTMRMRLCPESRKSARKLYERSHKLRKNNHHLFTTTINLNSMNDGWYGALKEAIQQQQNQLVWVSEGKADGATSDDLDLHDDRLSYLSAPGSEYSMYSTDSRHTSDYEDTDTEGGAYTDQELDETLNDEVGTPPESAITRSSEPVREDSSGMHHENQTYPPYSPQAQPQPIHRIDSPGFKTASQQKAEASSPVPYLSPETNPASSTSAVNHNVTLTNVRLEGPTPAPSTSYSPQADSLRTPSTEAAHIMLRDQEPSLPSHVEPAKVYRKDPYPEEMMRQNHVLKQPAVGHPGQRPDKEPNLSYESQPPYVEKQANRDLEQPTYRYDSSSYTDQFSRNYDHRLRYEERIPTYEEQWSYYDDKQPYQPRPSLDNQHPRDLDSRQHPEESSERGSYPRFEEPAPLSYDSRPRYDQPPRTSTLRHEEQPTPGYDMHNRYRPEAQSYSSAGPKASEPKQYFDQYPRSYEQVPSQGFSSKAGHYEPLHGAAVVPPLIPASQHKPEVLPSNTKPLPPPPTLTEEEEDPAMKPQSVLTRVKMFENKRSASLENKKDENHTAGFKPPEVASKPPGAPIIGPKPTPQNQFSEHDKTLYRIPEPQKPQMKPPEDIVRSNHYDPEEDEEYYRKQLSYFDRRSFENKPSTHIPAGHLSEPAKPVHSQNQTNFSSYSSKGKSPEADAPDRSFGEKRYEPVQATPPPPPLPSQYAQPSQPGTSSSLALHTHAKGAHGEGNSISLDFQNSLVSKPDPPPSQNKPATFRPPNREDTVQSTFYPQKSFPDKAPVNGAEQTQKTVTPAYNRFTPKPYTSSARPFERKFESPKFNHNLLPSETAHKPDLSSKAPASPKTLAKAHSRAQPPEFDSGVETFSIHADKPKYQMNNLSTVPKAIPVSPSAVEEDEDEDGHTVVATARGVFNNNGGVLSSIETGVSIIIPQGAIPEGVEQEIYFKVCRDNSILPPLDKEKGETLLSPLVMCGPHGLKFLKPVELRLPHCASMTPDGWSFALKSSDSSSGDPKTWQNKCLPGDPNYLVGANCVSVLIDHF
UniProt A0A8C0NGY6: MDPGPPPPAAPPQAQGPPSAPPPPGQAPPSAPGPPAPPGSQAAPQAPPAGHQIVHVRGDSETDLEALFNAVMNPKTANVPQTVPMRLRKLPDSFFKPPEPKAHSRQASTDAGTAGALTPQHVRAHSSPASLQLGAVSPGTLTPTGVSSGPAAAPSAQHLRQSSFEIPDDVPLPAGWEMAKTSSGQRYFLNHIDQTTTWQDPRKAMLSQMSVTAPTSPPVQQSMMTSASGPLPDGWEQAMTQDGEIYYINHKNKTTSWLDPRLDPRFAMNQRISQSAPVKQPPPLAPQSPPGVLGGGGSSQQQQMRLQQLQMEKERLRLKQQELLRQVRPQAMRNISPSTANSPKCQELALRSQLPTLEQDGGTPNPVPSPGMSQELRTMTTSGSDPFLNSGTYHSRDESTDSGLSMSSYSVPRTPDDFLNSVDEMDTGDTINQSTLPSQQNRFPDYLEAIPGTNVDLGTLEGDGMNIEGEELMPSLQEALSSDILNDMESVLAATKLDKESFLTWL

Biological target: T1, claudin-2 (dog (endogenous in MDCK-II)) (UniProt Q95KM6)
T1 sequence: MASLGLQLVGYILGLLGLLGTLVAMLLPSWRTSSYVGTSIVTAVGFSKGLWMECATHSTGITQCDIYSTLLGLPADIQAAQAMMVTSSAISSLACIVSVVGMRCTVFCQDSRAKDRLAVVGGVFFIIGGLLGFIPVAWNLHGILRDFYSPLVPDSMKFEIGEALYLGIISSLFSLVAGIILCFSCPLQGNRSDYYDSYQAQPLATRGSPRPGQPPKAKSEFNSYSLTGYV
Test: affinity purification with mass spectrometry; immunoprecipitation with anti-claudin-2 antibody from MDCK-II cell lysate, mass spectrometry; MDCKII-TALEN (claudin-2 knockout) lysate as negative control

With ZO-1 (from UniProt O97758 1-1769) the binding was “binds”.

In the case of “Ubiquitin carboxyl-terminal hydrolase (dog (endogenous in MDCK-II))”, the binding is reported as “binds”.

“YES-associated protein (YAP) (from UniProt A0A8C0NGY6 1-506)” was tested, and the binding was “binds”.

B1: caveolin-1 (protein, UniProt P33724 1-178)
chain: MSGGKYVDSEGHLYTVPIREQGNIYKPNNKAMAEEMSEKQVYDAHTKEIDLVNRDPKHLNDDVVKIDFEDVIAEPEGTHSFDGIWKASFTTFTVTKYWFYRLLSALFGIPMALIWGIYFAILSFLHIWAVVPCIKSFLIEIQCISRVYSIYVHTFCDPFFEAVGKIFSNIRINMQKET
For B1, the binding was “binds”.

B2: ZO-3 (protein, UniProt O62683 1-898)
chain: MEELTIWEQHTATLCRDPRRGFGIAISGGRDRASGSVVVSDVVPGGPADGRLQTGDHVVMVNGVSMESVTSTFAIQILKTCTKLANITVKRPRKIQLPATKAGTSGRGRQGLEEEADCGQGYDGDTSSGSGRSWDKRSRRARTGRRNQAGSRGRRSPGGNSEANGLALVSGFKRLPRQDVHMRPVKSVLVRRTESEEFGVTLGSQIFIKHITDSGLAARNRGLQEGDLILQINGVSSENLSLSDTRRLIEKSEGKLTLLVLRDRGQFLVNIPPAVSDSDSDSSFLDDISALGSELSQAVPSHVPPPPPHAQRSLDSDGTDSPRDSPPLRRENSLDSRTISEPDAPRHSSYDIYRVPSSQSAEDRGYSPDSRVVRFHKGTTIGLRLAGGNDVGIFVSGVQEGSPADGQGIQEGDQILQVNDVPFRNLTREEAVQFLVALPPGEEVELVTQRNEDIFRKMVQSRVGDSFYIRTHFELEASPPSGLGFTRGDVFHVLDTLCPGPGPSGARGTHWLAVRMGRDLREQERGIIPNQSRAEQLASLESAQRAVGAGPGASVGSSARAEFWRLRGLRRGAKKSTQRSREDLSALTRQGHYPPYERVVLREASFKRPVVILGPVADIAMQKLTAEMPDQFGIADSVLRTDSPSKIIKLDTVRVIAEKNKHALLDVTPSAVERLNYVQYYPIVVFCAPESRAALKALRQWLAPASRRSARRLYAQAQKLRKHSEHLFTATIPLRGTSDTWYQELKAVVREQQTRPIWTAEDQLDNSSEDNLELPHRGLADSSADLSCDSRVNSDYETDGEGYTDGEGYTDVDEGPPAPALARSSEPVLEEEPRSPRDHGRASGARGAQVDRHPYHSQGRQDSMRTYGQEALKKKFTRARDVESSDEDGYDWGPATDL
In the case of B2, the binding is reported as “binds”.
